Assay results from US20210284725A1 (Genentech, published 2021).
These are yes or no findings as the source states them, for the method shown. Some results given as binding are weak or reduced against the parent protein; the word gives no strength.

T1: human IL-33 (human, UniProt O95760 112-270, limits assumed)
T1 sequence (looked up): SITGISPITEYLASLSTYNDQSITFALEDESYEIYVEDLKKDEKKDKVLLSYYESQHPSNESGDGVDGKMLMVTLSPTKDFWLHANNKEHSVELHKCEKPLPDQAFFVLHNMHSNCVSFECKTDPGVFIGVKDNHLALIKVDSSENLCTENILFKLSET


Experiments:
[1] = target: T1, human IL-33; assay: SPR sandwich binning: human IL-33 (100 nM) bound to immobilized 1E1v8, then antibody injected at 10 ug/ml for 4 min
[2] = target: T1, human IL-33; assay: SPR epitope binning (array SPRi): antibody amine-coupled to the chip, human IL-33 injected at 100 nM for 4 min, 25 C
[3] = target: T1, human IL-33; assay: SPR sandwich binning: human IL-33 (100 nM) bound to immobilized 640087-7B, then antibody injected at 10 ug/ml for 4 min

| binding [1] | binding [2] | binding [3] | Binder |
| --- | --- | --- | --- |
| binds | – | – | RG3 (WO 2014/164959) (antibody, V domains shown) VH: QVLLVQSGAEVKKPGATVKVSCKASGSTFTGYYMHWVRQAPGQGLEWMGWINPNNGGTNYAQKFQGRVTMTRDTSISTAYMELSRLRSDDTAVYYCARELRYNWKSWGQGTLVTVSS VL: EIVLTQSPGTLSLSPGERVTLSCRASQSVGRPYLAWYQQIPGQAPRLLIYGASSRATDIPDRFSGNGSGTDFTLTISRLEPEDFAVYYCQQYDNSPYTFGQGTRLEIK |
| – | binds | binds | 1E1v8 (clone in the epitope binning panel) (antibody, V domains shown) VH: EVQLVESGGGLVQPGGSLRLSCAASGFTFNNYWMTWIRQAPGKGLEWVASITYTGGGTYYPDSVKGRFTISRDDAKSSLYLQMNSLRAEDTAVYYCTRANYYYNTYGGFPYWGQGTLVTVSS VL: DIQMTQSPSSLSASVGDRVTITCLASEGFSNDLAWYQQKPGKSPKLLIYAASRLQDGVPSRFSGSGSGTDFTLTISSLQPEDFATYFCQQGSKYPLTFGGGTKVEIKR |
| – | – | binds | RG18 (WO 2014/164959) (antibody, V domains shown) VH: EVQLVESGGNLEQPGGSLRLSCTASGFTFSRSAMNWVRRAPGKGLEWVSGISGSGGRTYYADSVKGRFTISRDNSKNTLYLQMNSLSAEDTAAYYCAKDSYTTSWYGGMDVWGHGTTVTVSS VL: DIQMTQSPSSVSASVGDRVTITCRASQGIFSWLAWYQQKPGKAPKLLIYAASSLQSGVPSRFSGSGSGTDFTLTISSLQPEDFAIYYCQQANSVPITFGQGTRLEIK |
| – | binds | binds | Ab43 (WO 2018/081075) (antibody, V domains shown) VH: EVQLVETGGGLIQPGGSLRLSCAASGFTFSFYAMSWVRQAPGKGLEWVSAISGSGGSTYYADSVKGRFTISRDNSKNTLYLQMNSLRAEDTAVYYCARTIHGIRAAYDAFIIWGQGTLVTVSS VL: EIVLTQSPGTLSLSPGERATLSCRASQSVGINLSWYQQKPGQAPRLLIYGASHRLTGIPDRFSGSGSGTDFTLTISRLEPEDFAVYYCHQYSQPPPFTFGGGTKVEIKR |
| – | – | binds | 158LS (WO 2017/187307) (antibody, V domains shown) VH: EVQLVESGGGLVQPGGSLRLSCAASGFTFSSYWMYWVRQAPGKGLEWVAAITPNAGEDYYPESVKGRFTISRDNAKNSLYLQMNSLRAEDTAVYYCARGHYYYTSYSLGYWGQGTLVTVSS VL: DIQMTQSPSSLSASVGDRVTITCKASQNINKHLDWYQQKPGKAPKLLIYFTNNLQTGVPSRFSGSGSGTDFTLTISSLQPEDFATYYCFQYNQGWTFGGGTKVEIKR |
| binds | – | – | 3F10 (antibody, V domains shown) VH: QVQLEESGPGLVQPSQTLSLTCTVSGFSLTSQNVHWVRQPPGKGLEWMGRMRFNGDTSYNSTLKSRLSISRDTSKNQVFLRLNSLQTDDTGTYYCARQRDNYGSYYFDDWGQGIMVTVSS VL: DTVLTQSPALAVSPGERVTISCRASESVLTLLNWYQQKPGQHPKLLIYLASHLESGVPARFSGRGSGTDFTLTIDPVEADDTASYYCQQSWIDPWTFGGGTTLELK |
